Measurements published in PMC9146371.

The chains behind the UniProt entries cited, without tags or fusion partners. Where a name states a change or a piece, a line headed by the entry shows the natural chain unless it says otherwise. Residues count along the entry.
UniProt O14672: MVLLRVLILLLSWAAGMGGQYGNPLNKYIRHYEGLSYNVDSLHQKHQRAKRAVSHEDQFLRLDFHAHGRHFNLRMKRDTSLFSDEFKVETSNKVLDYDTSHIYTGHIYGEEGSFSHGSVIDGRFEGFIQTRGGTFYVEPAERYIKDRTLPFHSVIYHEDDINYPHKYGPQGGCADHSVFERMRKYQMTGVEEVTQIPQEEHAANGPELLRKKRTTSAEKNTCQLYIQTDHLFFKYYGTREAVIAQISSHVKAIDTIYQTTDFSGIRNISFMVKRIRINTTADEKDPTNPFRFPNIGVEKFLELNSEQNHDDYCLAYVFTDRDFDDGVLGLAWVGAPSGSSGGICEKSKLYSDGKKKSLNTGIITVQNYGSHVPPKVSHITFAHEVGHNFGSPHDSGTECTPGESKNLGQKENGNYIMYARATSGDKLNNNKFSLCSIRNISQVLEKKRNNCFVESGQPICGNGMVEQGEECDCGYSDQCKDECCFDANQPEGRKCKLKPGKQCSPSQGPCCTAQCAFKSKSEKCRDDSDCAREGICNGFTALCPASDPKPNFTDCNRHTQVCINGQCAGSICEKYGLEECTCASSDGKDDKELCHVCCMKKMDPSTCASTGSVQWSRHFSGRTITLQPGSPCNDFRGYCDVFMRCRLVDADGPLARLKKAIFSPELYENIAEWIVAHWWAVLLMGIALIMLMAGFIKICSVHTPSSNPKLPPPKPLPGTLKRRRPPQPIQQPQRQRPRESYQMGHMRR
UniProt P63092: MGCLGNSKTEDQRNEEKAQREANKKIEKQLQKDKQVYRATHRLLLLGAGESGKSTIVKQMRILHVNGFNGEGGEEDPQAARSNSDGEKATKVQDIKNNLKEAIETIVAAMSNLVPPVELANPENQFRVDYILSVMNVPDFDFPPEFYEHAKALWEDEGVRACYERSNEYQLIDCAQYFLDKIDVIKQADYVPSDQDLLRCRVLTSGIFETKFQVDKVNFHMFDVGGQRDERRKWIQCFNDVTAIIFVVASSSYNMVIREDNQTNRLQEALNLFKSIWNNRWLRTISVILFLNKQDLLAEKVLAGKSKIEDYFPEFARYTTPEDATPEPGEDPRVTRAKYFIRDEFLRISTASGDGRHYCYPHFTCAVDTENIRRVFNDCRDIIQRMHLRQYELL
UniProt Q96BI3: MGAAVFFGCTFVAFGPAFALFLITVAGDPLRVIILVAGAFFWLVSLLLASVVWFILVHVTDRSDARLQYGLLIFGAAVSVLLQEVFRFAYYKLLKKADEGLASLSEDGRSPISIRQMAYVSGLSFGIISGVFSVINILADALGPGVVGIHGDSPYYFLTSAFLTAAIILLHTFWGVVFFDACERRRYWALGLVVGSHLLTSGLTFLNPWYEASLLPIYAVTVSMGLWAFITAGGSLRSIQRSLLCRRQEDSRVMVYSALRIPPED
UniProt P28482: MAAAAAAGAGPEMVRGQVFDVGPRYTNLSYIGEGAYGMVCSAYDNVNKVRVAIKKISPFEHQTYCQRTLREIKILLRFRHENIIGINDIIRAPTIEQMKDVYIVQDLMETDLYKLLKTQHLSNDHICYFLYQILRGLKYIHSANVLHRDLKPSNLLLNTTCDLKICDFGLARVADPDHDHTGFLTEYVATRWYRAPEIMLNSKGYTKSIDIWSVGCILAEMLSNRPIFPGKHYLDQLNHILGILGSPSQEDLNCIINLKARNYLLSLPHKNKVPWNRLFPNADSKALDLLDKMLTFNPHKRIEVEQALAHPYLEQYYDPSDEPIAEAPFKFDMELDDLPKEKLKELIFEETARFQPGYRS
UniProt P35523: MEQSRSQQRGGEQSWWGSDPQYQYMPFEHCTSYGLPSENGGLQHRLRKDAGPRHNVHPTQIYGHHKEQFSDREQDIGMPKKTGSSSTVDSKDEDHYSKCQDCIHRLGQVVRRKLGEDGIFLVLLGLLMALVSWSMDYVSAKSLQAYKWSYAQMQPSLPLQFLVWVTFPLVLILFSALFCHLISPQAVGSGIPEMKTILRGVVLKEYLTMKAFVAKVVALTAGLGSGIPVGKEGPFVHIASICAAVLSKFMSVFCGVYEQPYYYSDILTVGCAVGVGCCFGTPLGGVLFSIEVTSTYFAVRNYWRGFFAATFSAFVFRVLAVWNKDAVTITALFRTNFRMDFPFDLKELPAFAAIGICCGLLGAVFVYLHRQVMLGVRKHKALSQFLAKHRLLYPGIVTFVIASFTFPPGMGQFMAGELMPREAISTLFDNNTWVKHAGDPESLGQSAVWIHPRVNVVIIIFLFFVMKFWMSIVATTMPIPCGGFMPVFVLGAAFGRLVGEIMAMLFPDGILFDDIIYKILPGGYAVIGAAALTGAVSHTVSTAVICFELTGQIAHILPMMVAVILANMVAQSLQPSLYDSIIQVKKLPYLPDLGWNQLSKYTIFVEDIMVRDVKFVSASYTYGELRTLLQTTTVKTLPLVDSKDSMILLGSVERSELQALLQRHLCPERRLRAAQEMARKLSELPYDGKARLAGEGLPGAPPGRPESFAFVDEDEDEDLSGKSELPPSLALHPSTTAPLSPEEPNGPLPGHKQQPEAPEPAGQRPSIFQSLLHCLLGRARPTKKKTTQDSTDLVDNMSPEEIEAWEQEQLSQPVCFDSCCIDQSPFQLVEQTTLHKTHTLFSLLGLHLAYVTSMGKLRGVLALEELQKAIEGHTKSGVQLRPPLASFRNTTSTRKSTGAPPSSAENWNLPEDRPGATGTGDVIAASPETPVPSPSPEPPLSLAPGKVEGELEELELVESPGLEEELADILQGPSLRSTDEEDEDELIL
UniProt P30532, residues 23-468: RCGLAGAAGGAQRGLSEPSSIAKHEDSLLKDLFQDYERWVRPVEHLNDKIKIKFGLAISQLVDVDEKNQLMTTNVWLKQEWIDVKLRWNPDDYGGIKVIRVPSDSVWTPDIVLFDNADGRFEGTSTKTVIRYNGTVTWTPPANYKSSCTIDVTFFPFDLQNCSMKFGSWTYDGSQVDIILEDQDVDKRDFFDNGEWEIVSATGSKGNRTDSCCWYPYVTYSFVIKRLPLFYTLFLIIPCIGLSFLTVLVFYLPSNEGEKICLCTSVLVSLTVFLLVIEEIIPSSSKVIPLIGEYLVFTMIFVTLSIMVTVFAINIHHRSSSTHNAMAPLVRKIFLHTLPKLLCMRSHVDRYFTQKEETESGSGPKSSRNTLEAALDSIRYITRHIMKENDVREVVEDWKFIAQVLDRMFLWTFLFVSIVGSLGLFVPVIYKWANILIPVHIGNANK
UniProt Q92542, residues 34-709: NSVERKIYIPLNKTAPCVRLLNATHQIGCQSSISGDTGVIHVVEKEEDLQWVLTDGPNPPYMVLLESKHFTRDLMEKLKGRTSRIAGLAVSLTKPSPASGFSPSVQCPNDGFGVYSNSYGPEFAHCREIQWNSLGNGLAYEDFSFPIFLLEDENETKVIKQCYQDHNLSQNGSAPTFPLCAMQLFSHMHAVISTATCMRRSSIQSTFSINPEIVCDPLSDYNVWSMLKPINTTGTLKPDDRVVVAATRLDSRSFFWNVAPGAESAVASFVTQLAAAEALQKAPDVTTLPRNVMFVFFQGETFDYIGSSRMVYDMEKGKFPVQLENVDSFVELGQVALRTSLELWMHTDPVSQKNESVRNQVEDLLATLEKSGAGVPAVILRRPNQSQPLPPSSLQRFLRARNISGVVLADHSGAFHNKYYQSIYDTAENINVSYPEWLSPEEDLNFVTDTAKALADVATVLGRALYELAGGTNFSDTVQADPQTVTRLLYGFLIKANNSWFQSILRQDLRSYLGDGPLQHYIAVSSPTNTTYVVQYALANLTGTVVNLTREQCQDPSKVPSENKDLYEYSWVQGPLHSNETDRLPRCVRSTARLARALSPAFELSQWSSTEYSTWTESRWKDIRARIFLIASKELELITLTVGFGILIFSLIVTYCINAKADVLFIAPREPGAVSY
UniProt P27361: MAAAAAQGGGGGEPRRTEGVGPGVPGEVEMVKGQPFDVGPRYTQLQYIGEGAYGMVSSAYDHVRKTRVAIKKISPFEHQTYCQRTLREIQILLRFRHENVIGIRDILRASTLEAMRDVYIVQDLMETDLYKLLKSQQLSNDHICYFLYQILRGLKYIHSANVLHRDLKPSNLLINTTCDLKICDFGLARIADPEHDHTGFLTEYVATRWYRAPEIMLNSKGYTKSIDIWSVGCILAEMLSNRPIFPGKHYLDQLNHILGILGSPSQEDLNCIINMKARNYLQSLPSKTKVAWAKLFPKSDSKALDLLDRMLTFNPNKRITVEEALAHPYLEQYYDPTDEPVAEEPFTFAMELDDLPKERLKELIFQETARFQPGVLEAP
UniProt P08754: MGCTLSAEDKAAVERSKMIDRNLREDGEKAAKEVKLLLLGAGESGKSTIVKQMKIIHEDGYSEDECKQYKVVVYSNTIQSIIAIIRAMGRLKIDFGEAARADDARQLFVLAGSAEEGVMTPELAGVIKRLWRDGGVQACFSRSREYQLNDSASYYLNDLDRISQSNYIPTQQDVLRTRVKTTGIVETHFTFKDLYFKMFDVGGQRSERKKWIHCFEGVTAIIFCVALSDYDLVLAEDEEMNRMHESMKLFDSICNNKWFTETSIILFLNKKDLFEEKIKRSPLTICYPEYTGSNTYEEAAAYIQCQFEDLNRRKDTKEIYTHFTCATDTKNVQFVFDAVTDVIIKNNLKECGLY
UniProt P05067, residues 18-770: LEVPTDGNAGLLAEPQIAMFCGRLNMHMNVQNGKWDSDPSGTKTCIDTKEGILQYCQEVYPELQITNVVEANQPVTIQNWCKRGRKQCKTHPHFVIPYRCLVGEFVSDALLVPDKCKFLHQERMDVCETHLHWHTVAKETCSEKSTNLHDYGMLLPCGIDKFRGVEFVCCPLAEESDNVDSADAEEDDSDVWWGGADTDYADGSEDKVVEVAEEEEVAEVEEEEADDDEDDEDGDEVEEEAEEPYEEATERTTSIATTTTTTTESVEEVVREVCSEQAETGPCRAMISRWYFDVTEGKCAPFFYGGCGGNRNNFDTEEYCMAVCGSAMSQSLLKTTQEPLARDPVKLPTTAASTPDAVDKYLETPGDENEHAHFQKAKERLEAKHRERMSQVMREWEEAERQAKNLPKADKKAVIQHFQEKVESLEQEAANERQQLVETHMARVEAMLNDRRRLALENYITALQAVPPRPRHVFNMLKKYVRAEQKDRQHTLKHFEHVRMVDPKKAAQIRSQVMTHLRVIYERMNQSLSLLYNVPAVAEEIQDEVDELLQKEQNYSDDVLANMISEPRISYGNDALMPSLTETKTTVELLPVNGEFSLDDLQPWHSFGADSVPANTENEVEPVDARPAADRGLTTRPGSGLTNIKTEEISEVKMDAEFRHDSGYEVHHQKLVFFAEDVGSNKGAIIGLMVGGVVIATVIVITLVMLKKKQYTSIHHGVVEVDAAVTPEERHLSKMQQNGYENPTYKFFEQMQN
UniProt O95858: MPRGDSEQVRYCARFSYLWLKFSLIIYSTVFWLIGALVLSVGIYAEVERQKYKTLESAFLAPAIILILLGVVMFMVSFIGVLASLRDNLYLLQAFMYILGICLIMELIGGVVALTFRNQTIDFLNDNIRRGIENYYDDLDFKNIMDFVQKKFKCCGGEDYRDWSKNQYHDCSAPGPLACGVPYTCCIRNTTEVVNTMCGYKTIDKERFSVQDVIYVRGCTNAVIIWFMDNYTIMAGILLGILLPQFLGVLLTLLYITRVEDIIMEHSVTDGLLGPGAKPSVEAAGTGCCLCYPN

Tests used:
Experiment in all cases: affinity purification with mass spectrometry; tandem affinity purification (TAP): SF-tagged VLGR1 bait overexpressed in HEK293T cells for 48 h; cleared lysate purified in two steps on Strep-Tactin Superflow beads and anti-FLAG M2 agarose, eluted with desthiobiotin and FLAG peptide; LC-MS/MS; proteins also found in mock-treated cells not considered
[1] = target: T1, SF-C-VLGR1_CTF (C-terminally Strep II-FLAG-tagged C-terminal fragment of VLGR1) (human) (UniProt Q8WXG9)
T1 sequence: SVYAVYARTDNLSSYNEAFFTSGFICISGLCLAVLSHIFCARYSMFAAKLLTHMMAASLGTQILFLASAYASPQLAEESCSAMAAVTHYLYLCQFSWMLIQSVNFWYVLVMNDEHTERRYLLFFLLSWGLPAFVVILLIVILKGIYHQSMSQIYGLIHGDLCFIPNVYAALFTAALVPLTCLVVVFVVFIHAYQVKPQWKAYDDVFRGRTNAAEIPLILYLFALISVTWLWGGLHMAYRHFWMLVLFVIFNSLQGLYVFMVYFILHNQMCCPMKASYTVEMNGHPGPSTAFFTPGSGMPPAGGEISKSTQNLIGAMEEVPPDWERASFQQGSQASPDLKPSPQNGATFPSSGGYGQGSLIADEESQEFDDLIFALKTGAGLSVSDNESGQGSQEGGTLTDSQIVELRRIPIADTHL

[2] = target: T2, SF-N-VLGR1_ICD (Strep II-FLAG-tagged intracellular domain of VLGR1) (human) (UniProt Q8WXG9)
T2 sequence: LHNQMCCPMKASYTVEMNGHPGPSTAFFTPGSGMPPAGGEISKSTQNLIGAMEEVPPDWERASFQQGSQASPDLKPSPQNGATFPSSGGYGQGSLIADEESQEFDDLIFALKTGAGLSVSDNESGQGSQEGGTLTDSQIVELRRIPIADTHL

[3] = target: T3, SF-N-VLGR1_CTF (N-terminally Strep II-FLAG-tagged C-terminal fragment of VLGR1) (human) (UniProt Q8WXG9)
T3 sequence: T1 sequence

[4] = target: T4, VLGR1_CTF bait of the VLGR1_CTF TAPs (SF tag at the N- or the C-terminus, not told) (human) (UniProt Q8WXG9)
T4 sequence: T1 sequence

[5] = target: T4, VLGR1_CTF bait of the VLGR1_CTF TAPs (SF tag at the N- or the C-terminus, not told) (human); remark: listed apart in the source
[6] = target: T2, SF-N-VLGR1_ICD (Strep II-FLAG-tagged intracellular domain of VLGR1) (human); remark: listed apart in the source
[7] = target: T1, SF-C-VLGR1_CTF (C-terminally Strep II-FLAG-tagged C-terminal fragment of VLGR1) (human); remark: listed apart in the source
[8] = target: T3, SF-N-VLGR1_CTF (N-terminally Strep II-FLAG-tagged C-terminal fragment of VLGR1) (human); remark: listed apart in the source

Molecule: ADAM10 (from UniProt O14672)
binding [1]: binds

Molecule: Gαs (GNAS) (from UniProt P63092 1-394)
binding [3]: no binding
binding [1]: no binding

Molecule: APH1A (from UniProt Q96BI3 1-265)
binding [1]: binds

Molecule: mitogen-activated protein kinase MAPK1 (from UniProt P28482 1-360)
binding [2]: binds

Molecule: voltage-gated Cl- channel CLCN1 (from UniProt P35523 1-988)
binding [4]: binds

Molecule: CHRNA5 (from UniProt P30532 23-468)
binding [4]: binds

B3: SYNJ2BP (protein, UniProt P57105 1-145)
chain: MNGRVDYLVTEEEINLTRGPSGLGFNIVGGTDQQYVSNDSGIYVSRIKENGAAALDGRLQEGDKILSVNGQDLKNLLHQDAVDLFRNAGYAVSLRVQHRLQVQNGPIGHRGEGDPSGIPIFMVLVPVFALTMVAAWAFMRYRQQL
binding [7]: binds

B4: NIPA2 (non-imprinted in the Prader-Willi/Angelman syndrome region protein 2) (protein, UniProt Q8N8Q9 1-360)
chain: MSQGRGKYDFYIGLGLAMSSSIFIGGSFILKKKGLLRLARKGSMRAGQGGHAYLKEWLWWAGLLSMGAGEVANFAAYAFAPATLVTPLGALSVLVSAILSSYFLNERLNLHGKIGCLLSILGSTVMVIHAPKEEEIETLNEMSHKLGDPGFVVFATLVVIVALILIFVVGPRHGQTNILVYITICSVIGAFSVSCVKGLGIAIKELFAGKPVLRHPLAWILLLSLIVCVSTQINYLNRALDIFNTSIVTPIYYVFFTTSVLTCSAILFKEWQDMPVDDVIGTLSGFFTIIVGIFLLHAFKDVSFSLASLPVSFRKDEKAMNGNLSNMYEVLNNNEESLTCGIEQHTGENVSRRNGNLTAF
binding [8]: binds
binding [7]: binds

B5: whirlin (DFNB31/USH2D) (protein, UniProt Q9P202 1-907)
chain: MNAPLDGLSVSSSSTGSLGSAAGAGGGGGAGLRLLSANVRQLHQALTALLSEAEREQFTHCLNAYHARRNVFDLVRTLRVLLDSPVKRRLLPMLRLVIPRSDQLLFDQYTAEGLYLPATTPYRQPAWGGPDSAGPGEVRLVSLRRAKAHEGLGFSIRGGSEHGVGIYVSLVEPGSLAEKEGLRVGDQILRVNDKSLARVTHAEAVKALKGSKKLVLSVYSAGRIPGGYVTNHIYTWVDPQGRSISPPSGLPQPHGGALRQQEGDRRSTLHLLQGGDEKKVNLVLGDGRSLGLTIRGGAEYGLGIYITGVDPGSEAEGSGLKVGDQILEVNGRSFLNILHDEAVRLLKSSRHLILTVKDVGRLPHARTTVDETKWIASSRIRETMANSAGFLGDLTTEGINKPGFYKGPAGSQVTLSSLGNQTRVLLEEQARHLLNEQEHATMAYYLDEYRGGSVSVEALVMALFKLLNTHAKFSLLSEVRGTISPQDLERFDHLVLRREIESMKARQPPGPGAGDTYSMVSYSDTGSSTGSHGTSTTVSSARNTLDLEETGEAVQGNINALPDVSVDDVRSTSQGLSSFKPLPRPPPLAQGNDLPLGQPRKLGREDLQPPSSMPSCSGTVFSAPQNRSPPAGTAPTPGTSSAQDLPSSPIYASVSPANPSSKRPLDAHLALVNQHPIGPFPRVQSPPHLKSPSAEATVAGGCLLPPSPSGHPDQTGTNQHFVMVEVHRPDSEPDVNEVRALPQTRTASTLSQLSDSGQTLSEDSGVDAGEAEASAPGRGRQSVSTKSRSSKELPRNERPTDGANKPPGLLEPTSTLVRVKKSAATLGIAIEGGANTRQPLPRIVTIQRGGSAHNCGQLKVGHVILEVNGLTLRGKEHREAARIIAEAFKTKDRDYIDFLVTEFNVML
binding [6]: binds

The next lines start with the values.

binding [1]: binds
Molecule: presenilin PSEN2 (from UniProt P49810 1-448)

binding [1]: binds
Molecule: nicastrin (NCSTN) (from UniProt Q92542 34-709)

binding [2]: binds
Molecule: mitogen-activated protein kinase MAPK3 (from UniProt P27361 1-379)

binding [3]: binds
binding [1]: binds
Molecule: Gαi3 (GNAI3) (from UniProt P08754 1-354)

binding [3]: binds
Molecule: amyloid precursor protein (APP) (from UniProt P05067 18-770)

binding [1]: binds
Molecule: TSPAN15 (from UniProt O95858 1-294)

binding [5]: binds
B1: voltage-gated Cl- channel CLCN7 (protein, UniProt P51798 1-805)
chain: MANVSKKVSWSGRDRDDEEAAPLLRRTARPGGGTPLLNGAGPGAARQSPRSALFRVGHMSSVELDDELLDPDMDPPHPFPKEIPHNEKLLSLKYESLDYDNSENQLFLEEERRINHTAFRTVEIKRWVICALIGILTGLVACFIDIVVENLAGLKYRVIKGNIDKFTEKGGLSFSLLLWATLNAAFVLVGSVIVAFIEPVAAGSGIPQIKCFLNGVKIPHVVRLKTLVIKVSGVILSVVGGLAVGKEGPMIHSGSVIAAGISQGRSTSLKRDFKIFEYFRRDTEKRDFVSAGAAAGVSAAFGAPVGGVLFSLEEGASFWNQFLTWRIFFASMISTFTLNFVLSIYHGNMWDLSSPGLINFGRFDSEKMAYTIHEIPVFIAMGVVGGVLGAVFNALNYWLTMFRIRYIHRPCLQVIEAVLVAAVTATVAFVLIYSSRDCQPLQGGSMSYPLQLFCADGEYNSMAAAFFNTPEKSVVSLFHDPPGSYNPLTLGLFTLVYFFLACWTYGLTVSAGVFIPSLLIGAAWGRLFGISLSYLTGAAIWADPGKYALMGAAAQLGGIVRMTLSLTVIMMEATSNVTYGFPIMLVLMTAKIVGDVFIEGLYDMHIQLQSVPFLHWEAPVTSHSLTAREVMSTPVTCLRRREKVGVIVDVLSDTASNHNGFPVVEHADDTQPARLQGLILRSQLIVLLKHKVFVERSNLGLVQRRLRLKDFRDAYPRFPPIQSIHVSQDERECTMDLSEFMNPSPYTVPQEASLPRVFKLFRALGLRHLVVVDNRNQVVGLVTRKDLARYRLGKRGLEELSLAQT

binding [6]: binds
B2: harmonin (USH1C) (protein, UniProt Q9Y6N9 1-552)
chain: MDRKVAREFRHKVDFLIENDAEKDYLYDVLRMYHQTMDVAVLVGDLKLVINEPSRLPLFDAIRPLIPLKHQVEYDQLTPRRSRKLKEVRLDRLHPEGLGLSVRGGLEFGCGLFISHLIKGGQADSVGLQVGDEIVRINGYSISSCTHEEVINLIRTKKTVSIKVRHIGLIPVKSSPDEPLTWQYVDQFVSESGGVRGSLGSPGNRENKEKKVFISLVGSRGLGCSISSGPIQKPGIFISHVKPGSLSAEVGLEIGDQIVEVNGVDFSNLDHKEAVNVLKSSRSLTISIVAAAGRELFMTDRERLAEARQRELQRQELLMQKRLAMESNKILQEQQEMERQRRKEIAQKAAEENERYRKEMEQIVEEEEKFKKQWEEDWGSKEQLLLPKTITAEVHPVPLRKPKYDQGVEPELEPADDLDGGTEEQGEQDFRKYEEGFDPYSMFTPEQIMGKDVRLLRIKKEGSLDLALEGGVDSPIGKVVVSAVYERGAAERHGGIVKGDEIMAINGKIVTDYTLAEAEAALQKAWNQGGDWIDLVVAVCPPKEYDDELTFF

binding [7]: binds
B6: ephrin beta 1 (EFNB1) (protein, UniProt P98172 28-346)
chain: LAKNLEPVSWSSLNPKFLSGKGLVIYPKIGDKLDIICPRAEAGRPYEYYKLYLVRPEQAAACSTVLDPNVLVTCNRPEQEIRFTIKFQEFSPNYMGLEFKKHHDYYITSTSNGSLEGLENREGGVCRTRTMKIIMKVGQDPNAVTPEQLTTSRPSKEADNTVKMATQAPGSRGSLGDSDGKHETVNQEEKSGPGASGGSSGDPDGFFNSKVALFAAVGAGCVIFLLIIIFLTVLLLKLRKRHRKHTQQRAAALSLSTLASPKGGSGTAGTEPSDIIIPLRTTENNYCPHYEKVSGDYGHPVYIVQEMPPQSPANIYYKV

Where two headings read alike, the source gives them in different places. Results are given in words; binding and its absence hold for the method and conditions named. Binding seen in cells or lysates may run through a third protein. These calls come from enrichment with a bait or labelling near it, and not all partners need be listed. For part of these data: No binding means not detected with the bait. Where a sequence is shown, tags or fusion partners need not be part of it. One block for each molecule: values may come before it.
